# From the supplement of paper PMC11438910
# The list shows a part of the results. Only a few entries rise above the background.
# B1: 4-173.3 (protein)
# chain 1: QLQLQESGPGLVKPSETLSLTCAVSGGSINNNYWSWIRQPPGKGLEWIGRIFGSGGSTDYNPSLKSRVTISTDTSKTQFSLNLNSVTAADTAVYFCARGSYQVDYWGQGVLVTVSS
# chain 2: QAALTQPPSMSGSPGQSVTISCTGTSSDIGGWNRVSWYQQYPGKAPKLMIYEVSKRPSGVSDRFSGSKSGNTASLTISGLQAEDEADYYCSSYVHINNALFGGGTRLTVL
# Tests used:
# Assay in all cases: fluorescence intensity of antibody binding to polysaccharide-coupled beads; higher = stronger binding
# [1] = target: pneumococcal polysaccharide Pn15B
# [2] = target: pneumococcal polysaccharide Pn15C
# [3] = target: pneumococcal polysaccharide Pn15F
# [4] = target: pneumococcal polysaccharide Pn16A
# [5] = target: pneumococcal polysaccharide Pn16F
# [6] = target: pneumococcal polysaccharide Pn17A
# [7] = target: pneumococcal polysaccharide Pn17F
# [8] = target: pneumococcal polysaccharide Pn18A
# [9] = target: pneumococcal polysaccharide Pn18B
# [10] = target: pneumococcal polysaccharide Pn18C
# [11] = target: pneumococcal polysaccharide Pn18F
# [12] = target: pneumococcal polysaccharide Pn19A
# [13] = target: pneumococcal polysaccharide Pn19B
# [14] = target: pneumococcal polysaccharide Pn19C
# [15] = target: pneumococcal polysaccharide Pn19F
# [16] = target: pneumococcal polysaccharide Pn2
# [17] = target: pneumococcal polysaccharide Pn20A
# [18] = target: pneumococcal polysaccharide Pn20B
# [19] = target: pneumococcal polysaccharide Pn21
# [20] = target: pneumococcal polysaccharide Pn22A
# [21] = target: pneumococcal polysaccharide Pn22F
# [22] = target: pneumococcal polysaccharide Pn23A
# [23] = target: pneumococcal polysaccharide Pn23B
# [24] = target: pneumococcal polysaccharide Pn23F
# [25] = antibody concentration 2337.65 ng/mL
# [26] = antibody concentration 12500 ng/mL
# [27] = antibody concentration 0.1 ng/mL
# [28] = antibody concentration 0.534724 ng/mL
# [29] = antibody concentration 2.8593 ng/mL
# [30] = antibody concentration 15.2894 ng/mL
# [31] = antibody concentration 81.7561 ng/mL
# [32] = antibody concentration 437.17 ng/mL
binder,measurement,setting,value
B1,fluorescence intensity,[1]; [25],23 MFI
same,fluorescence intensity,[1]; [26],30 MFI
same,fluorescence intensity,[2]; [27],16.5 MFI
same,fluorescence intensity,[2]; [28],19.2 MFI
same,fluorescence intensity,[2]; [29],14.2 MFI
same,fluorescence intensity,[2]; [30],14.5 MFI
same,fluorescence intensity,[2]; [31],16.8 MFI
same,fluorescence intensity,[2]; [32],14.5 MFI
same,fluorescence intensity,[2]; [25],17.5 MFI
same,fluorescence intensity,[2]; [26],22.2 MFI
same,fluorescence intensity,[3]; [27],16 MFI
same,fluorescence intensity,[3]; [28],15.5 MFI
same,fluorescence intensity,[3]; [29],16.5 MFI
same,fluorescence intensity,[3]; [30],15.5 MFI
same,fluorescence intensity,[3]; [31],18 MFI
same,fluorescence intensity,[3]; [32],16.2 MFI
same,fluorescence intensity,[3]; [25],18 MFI
same,fluorescence intensity,[3]; [26],24.2 MFI
same,fluorescence intensity,[4]; [27],13.2 MFI
same,fluorescence intensity,[4]; [28],13.5 MFI
same,fluorescence intensity,[4]; [29],14 MFI
same,fluorescence intensity,[4]; [30],12 MFI
same,fluorescence intensity,[4]; [31],12 MFI
same,fluorescence intensity,[4]; [32],13 MFI
same,fluorescence intensity,[4]; [25],14.5 MFI
same,fluorescence intensity,[4]; [26],22.5 MFI
same,fluorescence intensity,[5]; [27],23.2 MFI
same,fluorescence intensity,[5]; [28],24 MFI
same,fluorescence intensity,[5]; [29],21.5 MFI
same,fluorescence intensity,[5]; [30],22 MFI
same,fluorescence intensity,[5]; [31],23.2 MFI
same,fluorescence intensity,[5]; [32],23.8 MFI
same,fluorescence intensity,[5]; [25],27 MFI
same,fluorescence intensity,[5]; [26],35 MFI
same,fluorescence intensity,[6]; [27],20.2 MFI
same,fluorescence intensity,[6]; [28],18.5 MFI
same,fluorescence intensity,[6]; [29],19 MFI
same,fluorescence intensity,[6]; [30],20.5 MFI
same,fluorescence intensity,[6]; [31],19.5 MFI
same,fluorescence intensity,[6]; [32],19.8 MFI
same,fluorescence intensity,[6]; [25],20 MFI
same,fluorescence intensity,[6]; [26],25 MFI
same,fluorescence intensity,[7]; [27],25.2 MFI
same,fluorescence intensity,[7]; [28],25 MFI
same,fluorescence intensity,[7]; [29],26.8 MFI
same,fluorescence intensity,[7]; [30],23.5 MFI
same,fluorescence intensity,[7]; [31],23.2 MFI
same,fluorescence intensity,[7]; [32],25 MFI
same,fluorescence intensity,[7]; [25],25.8 MFI
same,fluorescence intensity,[7]; [26],30.5 MFI
same,fluorescence intensity,[8]; [27],21.8 MFI
same,fluorescence intensity,[8]; [28],23.5 MFI
same,fluorescence intensity,[8]; [29],22 MFI
same,fluorescence intensity,[8]; [30],24 MFI
same,fluorescence intensity,[8]; [31],21.5 MFI
same,fluorescence intensity,[8]; [32],24.5 MFI
same,fluorescence intensity,[8]; [25],24.2 MFI
same,fluorescence intensity,[8]; [26],29 MFI
same,fluorescence intensity,[9]; [27],30.8 MFI
same,fluorescence intensity,[9]; [28],29 MFI
same,fluorescence intensity,[9]; [29],30 MFI
same,fluorescence intensity,[9]; [30],26.8 MFI
same,fluorescence intensity,[9]; [31],28.5 MFI
same,fluorescence intensity,[9]; [32],28 MFI
same,fluorescence intensity,[9]; [25],33 MFI
same,fluorescence intensity,[9]; [26],39.8 MFI
same,fluorescence intensity,[10]; [27],18 MFI
same,fluorescence intensity,[10]; [28],17.5 MFI
same,fluorescence intensity,[10]; [29],18 MFI
same,fluorescence intensity,[10]; [30],17.5 MFI
same,fluorescence intensity,[10]; [31],18.5 MFI
same,fluorescence intensity,[10]; [32],19 MFI
same,fluorescence intensity,[10]; [25],22.5 MFI
same,fluorescence intensity,[10]; [26],34.5 MFI
same,fluorescence intensity,[11]; [27],22 MFI
same,fluorescence intensity,[11]; [28],22.8 MFI
same,fluorescence intensity,[11]; [29],21.5 MFI
same,fluorescence intensity,[11]; [30],20.5 MFI
same,fluorescence intensity,[11]; [31],22 MFI
same,fluorescence intensity,[11]; [32],22.2 MFI
same,fluorescence intensity,[11]; [25],25 MFI
same,fluorescence intensity,[11]; [26],34 MFI
same,fluorescence intensity,[12]; [27],16.8 MFI
same,fluorescence intensity,[12]; [28],16.8 MFI
same,fluorescence intensity,[12]; [29],17.8 MFI
same,fluorescence intensity,[12]; [30],16 MFI
same,fluorescence intensity,[12]; [31],17.5 MFI
same,fluorescence intensity,[12]; [32],19 MFI
same,fluorescence intensity,[12]; [25],19.2 MFI
same,fluorescence intensity,[12]; [26],28 MFI
same,fluorescence intensity,[13]; [27],31 MFI
same,fluorescence intensity,[13]; [28],28.5 MFI
same,fluorescence intensity,[13]; [29],28 MFI
same,fluorescence intensity,[13]; [30],26 MFI
same,fluorescence intensity,[13]; [31],28.2 MFI
same,fluorescence intensity,[13]; [32],29 MFI
same,fluorescence intensity,[13]; [25],34 MFI
same,fluorescence intensity,[13]; [26],92.5 MFI
same,fluorescence intensity,[14]; [27],24 MFI
same,fluorescence intensity,[14]; [28],25 MFI
same,fluorescence intensity,[14]; [29],26 MFI
same,fluorescence intensity,[14]; [30],22 MFI
same,fluorescence intensity,[14]; [31],23 MFI
same,fluorescence intensity,[14]; [32],23 MFI
same,fluorescence intensity,[14]; [25],28.5 MFI
same,fluorescence intensity,[14]; [26],64.5 MFI
same,fluorescence intensity,[15]; [27],24.8 MFI
same,fluorescence intensity,[15]; [28],25 MFI
same,fluorescence intensity,[15]; [29],24.8 MFI
same,fluorescence intensity,[15]; [30],25 MFI
same,fluorescence intensity,[15]; [31],24 MFI
same,fluorescence intensity,[15]; [32],27.2 MFI
same,fluorescence intensity,[15]; [25],29.5 MFI
same,fluorescence intensity,[15]; [26],46 MFI
same,fluorescence intensity,[16]; [27],17 MFI
same,fluorescence intensity,[16]; [28],18.5 MFI
same,fluorescence intensity,[16]; [29],19 MFI
same,fluorescence intensity,[16]; [30],18.5 MFI
same,fluorescence intensity,[16]; [31],21 MFI
same,fluorescence intensity,[16]; [32],18.8 MFI
same,fluorescence intensity,[16]; [25],21 MFI
same,fluorescence intensity,[16]; [26],25.2 MFI
same,fluorescence intensity,[17]; [27],24.5 MFI
same,fluorescence intensity,[17]; [28],22 MFI
same,fluorescence intensity,[17]; [29],22 MFI
same,fluorescence intensity,[17]; [30],22.5 MFI
same,fluorescence intensity,[17]; [31],22 MFI
same,fluorescence intensity,[17]; [32],22.5 MFI
same,fluorescence intensity,[17]; [25],25.5 MFI
same,fluorescence intensity,[17]; [26],64 MFI
same,fluorescence intensity,[18]; [27],22 MFI
same,fluorescence intensity,[18]; [28],22.5 MFI
same,fluorescence intensity,[18]; [29],22.5 MFI
same,fluorescence intensity,[18]; [30],24 MFI
same,fluorescence intensity,[18]; [31],23 MFI
same,fluorescence intensity,[18]; [32],23 MFI
same,fluorescence intensity,[18]; [25],25 MFI
same,fluorescence intensity,[18]; [26],31 MFI
same,fluorescence intensity,[19]; [27],18 MFI
same,fluorescence intensity,[19]; [28],17.5 MFI
same,fluorescence intensity,[19]; [29],19.5 MFI
same,fluorescence intensity,[19]; [30],18.2 MFI
same,fluorescence intensity,[19]; [31],19 MFI
same,fluorescence intensity,[19]; [32],19.5 MFI
same,fluorescence intensity,[19]; [25],20.2 MFI
same,fluorescence intensity,[19]; [26],23.5 MFI
same,fluorescence intensity,[20]; [27],23 MFI
same,fluorescence intensity,[20]; [28],21 MFI
same,fluorescence intensity,[20]; [29],20 MFI
same,fluorescence intensity,[20]; [30],20.5 MFI
same,fluorescence intensity,[20]; [31],19 MFI
same,fluorescence intensity,[20]; [32],20.5 MFI
same,fluorescence intensity,[20]; [25],23.8 MFI
same,fluorescence intensity,[20]; [26],39.5 MFI
same,fluorescence intensity,[21]; [27],29 MFI
same,fluorescence intensity,[21]; [28],30 MFI
same,fluorescence intensity,[21]; [29],31.5 MFI
same,fluorescence intensity,[21]; [30],31.5 MFI
same,fluorescence intensity,[21]; [31],29.5 MFI
same,fluorescence intensity,[21]; [32],29 MFI
same,fluorescence intensity,[21]; [25],31 MFI
same,fluorescence intensity,[21]; [26],39.2 MFI
same,fluorescence intensity,[22]; [27],22 MFI
same,fluorescence intensity,[22]; [28],23.2 MFI
same,fluorescence intensity,[22]; [29],23 MFI
same,fluorescence intensity,[22]; [30],23.5 MFI
same,fluorescence intensity,[22]; [31],23 MFI
same,fluorescence intensity,[22]; [32],27 MFI
same,fluorescence intensity,[22]; [25],33.5 MFI
same,fluorescence intensity,[22]; [26],56.8 MFI
same,fluorescence intensity,[23]; [27],29 MFI
same,fluorescence intensity,[23]; [28],30 MFI
same,fluorescence intensity,[23]; [29],30.2 MFI
same,fluorescence intensity,[23]; [30],31.5 MFI
same,fluorescence intensity,[23]; [31],29.5 MFI
same,fluorescence intensity,[23]; [32],30.5 MFI
same,fluorescence intensity,[23]; [25],31.8 MFI
same,fluorescence intensity,[23]; [26],37.5 MFI
same,fluorescence intensity,[24]; [27],16 MFI
same,fluorescence intensity,[24]; [28],16 MFI

# Random excerpt: 7 records from the list
binder,measurement,setting,value
B1,fluorescence intensity,[16]; [30],18.5 MFI
same,fluorescence intensity,[7]; [28],25 MFI
same,fluorescence intensity,[20]; [26],39.5 MFI
same,fluorescence intensity,[10]; [25],22.5 MFI
same,fluorescence intensity,[5]; [32],23.8 MFI
same,fluorescence intensity,[21]; [27],29 MFI
same,fluorescence intensity,[23]; [29],30.2 MFI
